# Results of single-concentration screens

From ChEMBL document CHEMBL3988442, “University of Dundee, Small-Polar-MMV Screening Library” (2021).

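Whole-cell growth test on Mycobacterium tuberculosis, read after 4 days in a medium based on cholesterol and the lipid DPPC; the read-out is not stated. Concentration: 50 µM. Direction is inferred from retests: higher values go with more growth inhibition. About 69,000 compounds were tested under these conditions; 0.54% (about 370) showed 50% or more at least once.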

The filed quantity is “Percent Effect” (%). How 0% and 100% were set is not recorded. Most values in the screen are low, and negative values occur. This is an unselected part of the compounds tested. Two or more numbers in one place are separate tests of the same structure; such repeats can differ widely.

compound	Percent Effect
Brc1ccc(CNCc2nnc3n2CCC3)s1.Cl	9.79
CCN(CC)c1ccc(-c2nc(-c3cccc(OC)c3OC)no2)cn1	18.42
CC(C)n1nc(O)c2c1NC(=O)CSC2c1cnn(C)c1 (stereo unspecified)	-4.862
O=C(Cn1c(=O)oc2ccccc21)N1Cc2cnn(CCO)c2C1	-7.503 and -2.544
Clc1ccc(N2CCC(OCC3CCCCO3)CC2)nc1 (stereo unspecified)	30.96
O=C(O)C(F)(F)F.O=C(O)C(F)(F)F.[H][C@]12CCN(c3ncc(C)cn3)[C@@]1([H])CC[C@H](COCc1ccccn1)O2	-0.09294 and -18.19
O=C(c1nc(COc2ccc3c(c2)OCO3)no1)N1CCCC1	36.79
CCn1ccnc1CN1CCN(CCOc2ccc(C#N)cc2)CC1	-4.096
CCn1ccnc1CN1CCCN(C(=O)c2ccnc(C)n2)CC1	-15.79
COc1ccccc1CN1CC(OC)CN(C(=O)CC(C)C)CC1=O (stereo unspecified)	-6.032
Cc1nn(C)c2nc(N(Cc3ccncc3)CC3CCCO3)sc12 (stereo unspecified)	-4.527
COc1ccc(-n2nc(C)c(C(C)=O)c2C)cc1C(N)=O	-14.46 and -10.71
CS(=O)(=O)N1CCCC1c1cccc(Cc2ccccc2F)n1 (stereo unspecified)	15.34
CSCC(=O)N1CCCC(CCC(=O)N(C)CCc2ccccn2)C1 (stereo unspecified)	3.24
[H][C@]12CC[C@]([H])(CN(c3ncccc3F)C1)N(CC=C(C)C)C2=O	-15.85
Cc1cc(C2CCCN2C(=O)c2cnn(C)c2)on1 (stereo unspecified)	-29.74
COc1ccc(Cl)cc1C(=O)N1CCCC(c2cc(C)[nH]n2)C1 (stereo unspecified)	-15.04
CCC(C)CS(=O)(=O)NC(=O)C1CCC1 (stereo unspecified)	-21.45
[H][C@@]12C[C@H](C(=O)NCc3ccccc3)[C@@]([H])(CN(S(=O)(=O)CC(C)C)C1)O2	-3.355
Cl.c1cc(CNCc2ccnc(N3CCOCC3)c2)c2c(c1)OCO2	-13.33
CCn1cc(CN2CCCN(C(=O)CCc3cnn(C)c3)CC2)cn1	-9.941
[H][C@@]12C[C@H](C(=O)Nc3cnccn3)CN(S(C)(=O)=O)[C@]1([H])CCO2	7.507
COc1ccc(-c2n[nH]cc2CN(C)Cc2nnc(C)o2)c(F)c1	-12.74
CCn1nc(NC(=O)Cn2ccc(C(C)=O)n2)c2ccccc21	-63.55
Cc1nc(COc2ccc(OC3CCCCNC3=O)cc2)oc1C (stereo unspecified)	-14.03
O=C(O)C(F)(F)F.O=C(O)C(F)(F)F.[H][C@@]12CN(Cc3cccc(F)c3)C[C@]1([H])OCCN2Cc1c(C)noc1C	14.94
Cc1cc(CS(=O)(=O)C(C)c2ccc(F)cc2)on1 (stereo unspecified)	-21.16
O=C(NCCOc1ccc(F)c(F)c1)NCc1cccc(CO)c1	17.52
Cc1ccc(NCc2nc3n(n2)CCCCC3)c(C)c1	-7.095
[H][C@]12CCCC(OCc3cccnc3)[C@@]1([H])CN(C(=O)c1cnc(C)cn1)C2 (stereo partly specified)	-12.98
CS(=O)(=O)CCNC(=O)Nc1sc2ccccc2c1Cl	21.42
CC(=O)N1CCC(c2nccnc2CNC(=O)c2cc[nH]n2)CC1	-11.95
CCC[C@@H]1CN(Cc2c[nH]nc2-c2ccc(OC)cc2)C[C@H]1NC(C)=O	-1.028
CC(C)NC(=O)c1nc2c(s1)CCCN2Cc1ccccc1	7.52
O=S(=O)(CCNC1CCc2ncnn2C1)c1ccc(Cl)cc1 (stereo unspecified)	5.376
OCCCN1CCc2onc(C(c3ccccc3)c3ccccc3)c2C1	-6.514
CC1(CNS(=O)(=O)c2cccc(C(=O)N3CCSCC3)c2)COC1	-12.44
[H][C@]12CC[C@]([H])(CN(Cc3ccncc3)C1)N(C(=O)N1CCCC1)C2	-12.07
CN(C)C(=O)CN1CCC2(COCc3cnc(-c4cccnc4)nc32)C1.O=C(O)C(F)(F)F.O=C(O)C(F)(F)F (stereo unspecified)	-1.304
CCc1c(O)nc2nc(N3CCOCC3)nn2c1C	-10.31
Cc1ccc(-c2nc(CNCC3CN(C)CCO3)co2)c(C)c1 (stereo unspecified)	11.07
CN(C)c1cc(C2CCCN(S(=O)(=O)c3cn(C)cn3)C2)ccn1 (stereo unspecified)	4.188
CCCNc1ncc(CN2CCC3(CCNC(=O)CC3)CC2)cn1	-2.788
CSc1ccc(C(CN)N2CCc3sccc3C2)cc1 (stereo unspecified)	1.007
Cc1cc(F)ccc1NC(=O)Cn1cc(C(=O)O)ccc1=O	-0.7514 and -0.1677
COCCC(C)NC(=O)N1CCC(n2ccc(C(F)(F)F)n2)CC1 (stereo unspecified)	9.796
COc1ccc(-c2ccoc2)cc1CNC1CCCC1	8.404
[H][C@@]12CCCO[C@]1([H])[C@H](NC(=O)CC1CC1)CN(C(=O)c1cccs1)C2	-13.36
N#CC1=C(N)Nn2c(nnc2-c2ccccc2F)S1	-27.07
NC(=O)Cn1ccnc1C1CCCN(Cc2cccc(Cl)c2F)C1 (stereo unspecified)	10.84
Cc1cnn(C2CCCN(C(=O)c3ccc(-n4cnnn4)cc3)C2)c1 (stereo unspecified)	-8.279
CC(C)N1CCCC(C(=O)NCc2noc(Cc3ccccc3)n2)C1 (stereo unspecified)	-21.44
CCOc1ccc(C(=O)CCC(=O)N(C)Cc2cnccn2)cc1C	-13.78
CN(C)C1CCN(C(=O)Cc2csc(-c3ncccn3)n2)CC1	-9.657
CC(=O)N1CCCCC1c1cc(C(=O)N2CCOCC2)[nH]n1 (stereo unspecified)	-9.456
Cc1ccc(-c2noc(CN3CCc4nn(C)c(=O)cc4C3)n2)cc1	44.86
O=C(NCCSc1ccccc1)[C@H]1CNC[C@@H](C(=O)N2CCOCC2)C1	8.422
O=C(O)C(F)(F)F.O=C(O)C(F)(F)F.[H][C@@]12OCCN(C3CCCC3)[C@@]1([H])CC[C@H]2Oc1cccnc1	8.558
Cc1cc(C2CCCN2Cc2ccn(C)c(=O)c2)on1 (stereo unspecified)	-1.983
Cc1cc(NC(=O)Cn2ncc(SCC(N)=O)c(Cl)c2=O)ccc1Br	-2.514
COCC(=O)N1CCc2nc(NC(C)C)nc(NC(C)C)c2CC1	5.906
CN(Cc1nnc(C2CC2)n1C)S(=O)(=O)c1ccccc1C#N	-1.976
CC(C)N(C)C(=O)COc1ccc(-c2noc(C3CCCO3)n2)cc1 (stereo unspecified)	-5.54
CCN(CC1CCOC1)C(=O)c1ccc(N2CCOCC2)c(F)c1 (stereo unspecified)	-10.82

Some entries from above, unchanged:

* [H][C@@]12C[C@H](C(=O)NCc3ccccc3)[C@@]([H])(CN(S(=O)(=O)CC(C)C)C1)O2 | -3.355%
* CCc1c(O)nc2nc(N3CCOCC3)nn2c1C | -10.31%
* CN(Cc1nnc(C2CC2)n1C)S(=O)(=O)c1ccccc1C#N | -1.976%
* O=C(Cn1c(=O)oc2ccccc21)N1Cc2cnn(CCO)c2C1 | -7.503% and -2.544%
* Cc1ccc(-c2nc(CNCC3CN(C)CCO3)co2)c(C)c1 (stereo unspecified) | 11.07%
* COc1ccccc1CN1CC(OC)CN(C(=O)CC(C)C)CC1=O (stereo unspecified) | -6.032%
* O=C(NCCSc1ccccc1)[C@H]1CNC[C@@H](C(=O)N2CCOCC2)C1 | 8.422%
* Cc1cnn(C2CCCN(C(=O)c3ccc(-n4cnnn4)cc3)C2)c1 (stereo unspecified) | -8.279%